Data from the supplement of paper PMC5949888.
Most values lie at the floor of the assay. Slopes are relative: functional sequences can read slightly below zero.

The substances below were run on Saccharomyces cerevisiae PS128 hsf1 delta, HSF1(1-493) fusion (assay: growth estimate (transactivation domain function in HSF1 fusion, heat-shock survival) (a.u. (slope of normalised read count over time)); higher = stronger growth at 37°C, i.e. more transactivation activity). Conditions: library: random library.

Row | Substance | growth estimate
1 | SPFQELGPERVRLAGYERTE | < -0.25
2 | IHN | < -0.25
3 | TIQGVIVG | < -0.25
4 | SRIPPRQGKSCQPILRL | < -0.25
5 | ITLCSSPPVRL | < -0.25
6 | TQLIGR | < -0.25
7 | SMGTLVHWG | < -0.25
8 | APEDDKV | < -0.25
9 | ILVYKSQCSGYV | < -0.25
10 | RGGQSYGIVHIRWRLYMISE | < -0.25
11 | NEVSQHTDYYRTLNITLCGA | < -0.25
12 | RRVLRYCNGICSLNLAPWP | < -0.25
13 | LFRFLLIGFSLASWEPSGRS | < -0.25
14 | REGWVL | < -0.25
15 | ISD | < -0.25
16 | HKLRICGMRSPQAQTDSPRA | < -0.25
17 | VIATCSYLLAMCKMATELSG | < -0.25
18 | PVKVFRDSPEIKASSIMSDC | < -0.25
19 | AKWYFPTVYGVTNMGKPIRL | -0.143
20 | GIKVVSLVHNSNDYSY | < -0.25
21 | QRPVNATPGPHSKLCSAHGA | < -0.25
22 | REEPCVY | -0.25
23 | NRVCSASSHWIGHLFYSHG | < -0.25
24 | PSSRI | < -0.25
25 | RGLRASDC | < -0.25
26 | YLTMGGWEFHECNLIEWSRG | < -0.25

Some of the entries so far, with tabs:
Row	Substance	growth estimate
6	TQLIGR	< -0.25
15	ISD	< -0.25
17	VIATCSYLLAMCKMATELSG	< -0.25
18	PVKVFRDSPEIKASSIMSDC	< -0.25

Going on with the list:

Row | Substance | growth estimate
27 | ERIMAKM | < -0.25
28 | AYIKTLSRGKPCVITQGI | < -0.25
29 | GASI | < -0.25
30 | SDRFT | < -0.25
31 | TSTGKARQARHAAAVNGVLV | < -0.25
32 | YTCFLAYAVGTVDSRPGRRN | < -0.25
33 | GMVKSG | < -0.25
34 | ASAK | < -0.25
35 | VRRYICA | < -0.25
36 | SGAVIFLGCNIDPLRYAYGF | < -0.25
37 | YRGHVFAPVSSQCELDAGTD | < -0.25
38 | DDYAIFTSVPRTRPAVFE | < -0.25
39 | WDRGFPKREEKKLL | < -0.25
40 | LLSSSESGALLFAMASVFVG | < -0.25
41 | SAKVSGVPLKIIFSGHEIRG | < -0.25
42 | PAGLS | < -0.25
43 | HVDIVSG | < -0.25
44 | RDCAGYGPTGMSLRVLMRDR | < -0.25
45 | RIFSLRVFPL | < -0.25
46 | AGVVDRDVVT | < -0.25
47 | LTLHL | < -0.25
48 | DCCLDWVIVRNSNRGRQSKF | < -0.25
49 | RSCDVNFIVLEAIGGLLFVG | < -0.25
50 | ICSMDIAPD | < -0.25
51 | EVGLSTRWV | < -0.25
52 | GQARVDSRISC | < -0.25

From no. 38 as far as 40, as listed above:
Row | Substance | growth estimate
38 | DDYAIFTSVPRTRPAVFE | < -0.25
39 | WDRGFPKREEKKLL | < -0.25
40 | LLSSSESGALLFAMASVFVG | < -0.25

Next part

Row | Substance | growth estimate
53 | NILPPIEQARRSLGHNI | -0.231
54 | AHFAPTPGQNQSGSAEDGVC | < -0.25
55 | TSLPRIRDSAGGSELFRAGL | < -0.25
56 | ATERFFRQTSSIIAFSH | < -0.25
57 | KFATLFRKGLSHPSRGFARE | < -0.25
58 | IAARIEQRGPISGYDSGTQM | < -0.25
59 | SCVY | < -0.25
60 | PFDWGTVAR | -0.246
61 | QRAIRPARSGTYASH | < -0.25
62 | GYSKDWQFLLSESGRIFVSR | < -0.25
63 | PSHYQPAILSHWCRKQAFAP | < -0.25
64 | GVESLYELARVGRVLTRPKC | < -0.25
65 | FGSRLLTPEPV | < -0.25
66 | RQRPLYRYRPQCSR | < -0.25
67 | WFGLQARHCKPYRWPIWAPT | < -0.25
68 | LIPDVSDLRIANRYHIPPSC | < -0.25
69 | TETNICCDEGP | < -0.25
70 | RSKEINVQLSWRDNTYALLV | < -0.25
71 | AVSSGVQHASSLIFGDGGRA | < -0.25
72 | SRFKFAG | < -0.25
73 | LGPLRGESTRE | < -0.25
74 | QRRPGNYVRLSQSS | -0.154
75 | QYWNTSRVADFGRSTVVVPT | -0.184
76 | PSP | < -0.25
77 | SWDSNVEPFK | < -0.25
78 | NNQCFYFH | < -0.25

Row | Substance | growth estimate
79 | VDLLLRFNG | < -0.25
80 | YYPLGLRLEDACSTGNTSQV | < -0.25
81 | LQVRFRNIVEANVACHRVVD | < -0.25
82 | VRFRTFRTSGSSIYR | < -0.25
83 | LVIAFPNTAGKTSVAGSVPF | < -0.25
84 | QVDGRGRGLRLGATVRRSDG | < -0.25
85 | CTSRLHQAMCRRL | < -0.25
86 | KVVIRVPISTIRKCSEAGSP | < -0.25
87 | SDIRSSRSIEMCDES | < -0.25
88 | RTRATSPGSKRRCV | < -0.25
89 | TDS | < -0.25
90 | DFFGTSSFAAYSDMPTLLVS | < -0.25
91 | RRSKFLFLLSSTTAYALVAR | < -0.25
92 | LARNKGLHL | < -0.25
93 | PTTIGDSTH | < -0.25
94 | LGISILGRIAAMFEVPS | < -0.25
95 | FLRMKASRLWPVHRMTSTVT | < -0.25
96 | QHIPTERGTNSGRLREMLRA | < -0.25
97 | SYKLLPSRYRQIEVRRTLP | < -0.25
98 | CHTSNTRDPGCENGVPLRTT | < -0.25
99 | SRGRSVRTS | < -0.25
100 | NKLPLLVLGRCVREPDAKCA | < -0.25
101 | GVLADCAPRRDMLKPP | < -0.25
102 | HKECKKR | < -0.25
103 | SYFNALRLIWQEIGTY | < -0.25
104 | HDKKQAPSFGFVSFRVGIWV | < -0.25

Row | Substance | growth estimate
105 | HQMPCSSDLGVERFWSAVGE | < -0.25
106 | RAECNSLLPHR | < -0.25
107 | WSRCSGHPLFYGSYSRLHRS | < -0.25
108 | GRCSLERTTDWGCR | < -0.25
109 | HSAYYLEIS | < -0.25
110 | ERSNRSWLVGLRRRPSGSWR | < -0.25
111 | NFLNKDGH | < -0.25
112 | SWA | < -0.25
113 | LGRLISLSQSVLRRVHL | < -0.25
114 | YWGSSPLIH | < -0.25
115 | CIRPNFSGAP | < -0.25
116 | GTLMLIDYMHVTLTLRFWWR | < -0.25
117 | LHPGSTPSVNEITSSRIEPG | < -0.25
118 | CKLGNGYFPTT | < -0.25
119 | EWRIPGRVRGWRRGSRRASK | < -0.25
120 | AINC | < -0.25
121 | SQSITATGLSWGQGGTWGRA | < -0.25
122 | YRKEHLEANRTSDICVLLVM | < -0.25
123 | CSLQ | < -0.25
124 | VLEVSAKTLLGRFTEHGLTS | < -0.25
125 | LFSGES | < -0.25
126 | DRVSY | < -0.25
127 | ALIRARVGSLTSLLGSVHGS | < -0.25
128 | WLVPYE | < -0.25
129 | LEDFTG | < -0.25
130 | RIGPCSKLSMIVRMTAIFSY | < -0.25

Row | Substance | growth estimate
131 | RFCNQSGPCTLDRYNIPSCG | < -0.25
132 | GCARAAITL | < -0.25
133 | PIRTGCNPVHTSSCWVGDAV | < -0.25
134 | NCSQLTACRSLPAVNLTAWR | < -0.25
135 | AVL | < -0.25
136 | LTSSTWEDILCRKCQHCASL | < -0.25
137 | TTRNPMLCKSPKSVSTGLVN | < -0.25
138 | ITRELDSTCISNF | < -0.25
139 | VTGSLFEVQ | < -0.25
140 | ATNPPSASGVATHSALASSD | < -0.25
141 | SWTFGPPQ | < -0.25
142 | AISETDGHNVRLQFSPQLRT | -0.245
143 | SQL | < -0.25
144 | PGLTSPIARDRGLVIRYDSC | < -0.25
145 | CYAGKLVFISWGFINENQSR | < -0.25
146 | SRPRLHLASPLNERIRPAC | < -0.25
147 | MLLPRSPRGGRGS | < -0.25
148 | FSSRAWPRSTCLTGATNLLA | < -0.25
149 | RKGGFTASLVHNRYIKNRKQ | < -0.25
150 | LWRLSEVAGLAPFPRRKGGV | < -0.25
151 | LENGVRKRRWARRDDGLREP | < -0.25
152 | EQGSAQRHGQVLREGPNRAT | < -0.25
153 | YVCSPGSWDSIPAWDLSVAR | < -0.25
154 | IGTRRTIMNWPTDSC | < -0.25
155 | QNKRIRQIYVSERKTTAQ | < -0.25
156 | TLSMRYSPTTEHSGRLHRGK | < -0.25

Taken from above.
Entry for YVCSPGSWDSIPAWDLSVAR under growth estimate: < -0.25
Entry for MLLPRSPRGGRGS under growth estimate: < -0.25
Entry for RKGGFTASLVHNRYIKNRKQ under growth estimate: < -0.25

Next part

Row | Substance | growth estimate
157 | SATGSP | < -0.25
158 | EYSRLQV | < -0.25
159 | LRLFVLRSGSR | < -0.25
160 | SKGTRISTSKRPGTEAPAFH | < -0.25
161 | LCWL | < -0.25
162 | CSASCS | < -0.25
163 | NPLIADCRKNSLGWLDVWSA | < -0.25
164 | GGKWFRAEL | < -0.25
165 | IDV | < -0.25
166 | ISEDLGHFMGLDQEVERYVD | -0.182
167 | TGFVN | < -0.25
168 | ARMSYASAPKRCEPAGVDLC | < -0.25
169 | SGGIGTNGALGLDA | < -0.25
170 | LDRGSVTGPGFFVLNQGSRI | < -0.25
171 | LCSG | < -0.25
172 | KQRVIVRWRAY | < -0.25
173 | ATPLACPEVPSFLSENHSSP | < -0.25
174 | HSANYAGRHRDPST | < -0.25
175 | RNTLDWHADAAYLWRFKHAS | < -0.25
176 | LRCYRNTANIGLFVTGSQRR | < -0.25
177 | ASERW | < -0.25
178 | DETP | < -0.25
179 | QLSSEDSRR | < -0.25
180 | NRCTYVRVMGAWFVHSLIRR | < -0.25
181 | RQSGPLGKRARTFSFMPVPL | 0.0057
182 | HTTPATTILLV | < -0.25

Row | Substance | growth estimate
183 | AETV | < -0.25
184 | ITLVGSELVLGAKVIPALLG | < -0.25
185 | KGRI | < -0.25
186 | SCQDLCLRHTSHETGPRTMN | < -0.25
187 | KTCYFSSSAR | < -0.25
188 | DCFLYQGQGPEHTVDIAPRA | < -0.25
189 | RWCGWLFWSPSNS | < -0.25
190 | VEHPPGGLQTFLRDGSSFAV | < -0.25
191 | CRFDDDDV | < -0.25
192 | TGMHTSRTIRHGSVAQWTLG | < -0.25
193 | GRHRIRRQR | < -0.25
194 | FGRLLKTVGKRELDAAHAV | < -0.25
195 | ATGDTMSY | < -0.25
196 | RWHSG | < -0.25
197 | VMPELQLCLFPLERRISLPV | < -0.25
198 | PIGV | < -0.25
199 | NTYEGGTVVLSLVYRHVVWC | -0.243
200 | AWEEY | < -0.25
201 | SCCL | < -0.25
202 | RLGEGWRFAVRFTGISRTAS | < -0.25
